Results from paper doi:10.1101/2022.07.02.498517.
Where two headings read alike, the source gives them in different places. Results are given in words; binding and its absence hold for the method and conditions named. Some binding calls cover weakened binding; strength is not graded here.

Protein sequences, listed by entry. Tags and fused reporters are not part of them. Lines headed by an entry give the natural chain unless they say otherwise; changes in a name come on top.
UniProt P07251: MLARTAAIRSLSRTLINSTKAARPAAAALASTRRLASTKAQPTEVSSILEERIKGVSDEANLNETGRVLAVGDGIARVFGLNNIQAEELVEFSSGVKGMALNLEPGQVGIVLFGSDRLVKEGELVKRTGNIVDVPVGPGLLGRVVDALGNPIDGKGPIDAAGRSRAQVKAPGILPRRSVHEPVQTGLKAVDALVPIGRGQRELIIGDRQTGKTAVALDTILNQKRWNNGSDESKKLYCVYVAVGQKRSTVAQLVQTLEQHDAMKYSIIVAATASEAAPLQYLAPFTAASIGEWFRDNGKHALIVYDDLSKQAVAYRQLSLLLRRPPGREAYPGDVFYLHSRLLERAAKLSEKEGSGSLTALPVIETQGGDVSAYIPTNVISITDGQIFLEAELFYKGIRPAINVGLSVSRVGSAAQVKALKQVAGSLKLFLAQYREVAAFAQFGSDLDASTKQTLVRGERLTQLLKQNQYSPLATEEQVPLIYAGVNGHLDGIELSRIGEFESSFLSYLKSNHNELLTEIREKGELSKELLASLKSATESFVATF

Assays:
Experiment in all cases: native gel or EMSA
[1] = target: S. cerevisiae mitochondrial ATP synthase complex (monomer) (S. cerevisiae) (UniProt P07251)
[2] = target: S. cerevisiae mitochondrial ATP synthase complex (monomer) (S. cerevisiae) (UniProt P07251); remark: listed apart in the source
[3] = target: S. cerevisiae mitochondrial ATP synthase complex (monomer) (S. cerevisiae) (UniProt P07251); remark: listed apart in the source
[4] = target: S. cerevisiae mitochondrial ATP synthase complex (monomer) (S. cerevisiae) (UniProt P07251); remark: listed apart in the source
[5] = target: S. cerevisiae mitochondrial ATP synthase complex (monomer) (S. cerevisiae) (UniProt P07251); remark: listed apart in the source

| binding [1] | binding [2] | binding [3] | binding [4] | binding [5] | Binder |
| --- | --- | --- | --- | --- | --- |
| binds | binds |  |  |  | Mic10 (protein, UniProt Q96VH5 1-97) MSEQAQTQQPAKSTPSKDSNKNGSSVSTILDTKWDIVLSNMLVKTAMGFGVGVFTSVLFFKRRAFPVWLGIGFGVGRGYAEGDAIFRSSAGLRSSKV |
|  | binds | binds | binds |  | Mco10 (Mitochondrial class one protein of 10 kDa) (protein, UniProt Q3E824 1-90) MGAAYKVFGKTVQPHVLAISTFIATAAVASYFTTKPKTKNEGKNSSALSQQKSGESSNSDAMGKDDDVVKSIEGFLNDLEKDTRQDTKAN |
| binds | binds |  |  |  | chaperonin Hsp10 (S. cerevisiae) (protein, UniProt P38910 1-106) MSTLLKSAKSIVPLMDRVLVQRIKAQAKTASGLYLPEKNVEKLNQAEVVAVGPGFTDANGNKVVPQVKVGDQVLIPQFGGSTIKLGNDDEVILFRDAEILAKIAKD |
| binds | binds |  |  |  | Atp21 (subunit e) (protein, UniProt P81449 1-96) MSTVNVLRYSALGLGLFFGFRNDMILKCNAKKKEEQAQYEEKLKLVEEAKKEYAKLHPVVTPKDVPANASFNLEDPNIDFERVILNAVESLKEAST |

Continued, binder first:

| Binder | binding [1] | binding [2] | binding [3] | binding [4] | binding [5] |
| --- | --- | --- | --- | --- | --- |
| ATPase activity inhibitor protein Inh1 (protein, UniProt P01097 23-85) SEGSTGTPRGSGSEDSFVKRERATEDFFVRQREKEQLRHLKEQLEKQRKKIDSLENKIDSMTK |  | binds |  |  |  |
| Atp20 (subunit g) (protein, UniProt Q12233 1-115) MLSRIQNYTSGLVSKANLLSSKALYYGKVGAEISKQIYLKEGLQPPTVAQFKSVYSNLYKQSLNFALKPTEVLSCLKNIQKNELLKYGAYGIQLIGFYSVGEIIGRRKLVGYKHH | binds | binds |  |  |  |
| Atp19 (subunit k) (protein, UniProt P81451 1-68) MGAAYHFMGKAIPPHQLAIGTLGLLGLLVVPNPFKSAKPKTVDIKTDNKDEEKFIENYLKKHSEKQDA | binds | binds |  |  | binds |
